Test results from PMC7862700.
The entries are a selection whose mix differs from that of the whole data set. At the low end of the ranking, values are background and their order means little.

Sequences of proteins named here, by UniProt entry; tags and fusion partners are left off. A change or cut given only in a name is not applied to a line headed by its entry.
UniProt O43186: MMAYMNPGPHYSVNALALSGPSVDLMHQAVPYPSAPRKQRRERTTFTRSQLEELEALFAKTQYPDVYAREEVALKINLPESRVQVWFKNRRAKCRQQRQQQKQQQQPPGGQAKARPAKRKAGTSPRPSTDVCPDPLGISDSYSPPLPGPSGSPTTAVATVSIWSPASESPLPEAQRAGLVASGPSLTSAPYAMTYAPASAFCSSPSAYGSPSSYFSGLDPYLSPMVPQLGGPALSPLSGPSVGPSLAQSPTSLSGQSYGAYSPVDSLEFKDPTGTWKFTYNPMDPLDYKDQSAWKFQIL

target: CRX (UniProt O43186); experiment: DAPPL (digital affinity profiling via proximity ligation, sequencing); conditions: 10 mM Tris-HCl pH 7.5, 50 mM NaCl, 1 mM DTT, 4% glycerol, room temperature, 30 min; GST-TFs on glutathione beads, 16-mer random dsDNA library, 0.1% …; high values mean tight binding; double strand, one strand shown; scale: fold enrichment (6-mer frequency, TF over GST control)

| Sequence | binding signal |
| --- | --- |
| GGCACT | 0.91 |
| TAAGTT | 1.94 |
| AACCGG | 0.695 |
| GCTATG | 0.944 |
| CATGGT | 0.887 |
| ATAACA | 1.39 |
| ACTCAC | 0.973 |
| AAGCGG | 1.11 |
| CCCTCA | 0.975 |
| TTATGC | 2.28 |
| CATATC | 0.944 |
| ACACAT | 0.945 |
| TACGAC | 1.25 |
| ACTGAC | 0.825 |
| GAAGTG | 0.638 |
| TTACTT | 1.95 |
| GTCCGG | 0.423 |
| GTCCAT | 0.85 |
| ACACCC | 0.908 |
| CCGGTC | 0.526 |

| Sequence | binding signal |
| --- | --- |
| TTGGTC | 0.932 |
| AAATAC | 1.46 |
| ACGACT | 1.19 |
| TATTAG | 1.94 |
| CCCCTA | 1.15 |
| TAGATC | 1.51 |
| GTATAC | 0.952 |
| GGGTTC | 0.803 |
| TGTTTT | 1.23 |
| CACCCG | 0.832 |
| CATCGC | 0.834 |
| ATTCAC | 1.14 |
| GTCCTC | 0.87 |
| AATTAC | 1.74 |
| TAAACC | 2.11 |
| CGTCTT | 1.5 |
| TTCCCA | 1.16 |
| AGCGTC | 0.856 |
| TAACGC | 1.63 |

Copied from the list.
TAGATC | binding signal: 1.51
CATCGC | binding signal: 0.834
